These are yes or no findings as the source states them, for the method shown. Binding seen in cells or lysates may run through a third protein. Some binding calls cover weakened binding; strength is not graded here.
Assays:
BCL-XL = BCL-XL (UniProt Q07817); assay: co-IP; cells treated with N-8 (Supplementary Fig. 5F); cells, constructs and bait not given
BCL2 = BCL2 (UniProt P10415); assay: as above
[1] = target: BCL-XL (tagged, in MIGR1 vector) (UniProt Q07817); assay: co-IP; cells co-transfected with or without TRIM21 and BCL-XL or MCL1; lysed in Co-IP lysis buffer, incubated overnight at 4 °C with bead-labeled antibodies or Protein A/G plus antibodies, washed five times, western blot

The chains behind the UniProt entries cited, without tags or fusion partners.
UniProt Q07817: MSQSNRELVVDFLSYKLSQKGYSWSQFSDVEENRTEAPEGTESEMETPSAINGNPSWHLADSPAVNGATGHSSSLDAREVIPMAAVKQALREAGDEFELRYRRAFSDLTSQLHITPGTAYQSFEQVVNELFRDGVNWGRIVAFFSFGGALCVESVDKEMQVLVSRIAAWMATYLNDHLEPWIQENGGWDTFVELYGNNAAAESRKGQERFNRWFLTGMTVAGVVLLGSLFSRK
UniProt P10415: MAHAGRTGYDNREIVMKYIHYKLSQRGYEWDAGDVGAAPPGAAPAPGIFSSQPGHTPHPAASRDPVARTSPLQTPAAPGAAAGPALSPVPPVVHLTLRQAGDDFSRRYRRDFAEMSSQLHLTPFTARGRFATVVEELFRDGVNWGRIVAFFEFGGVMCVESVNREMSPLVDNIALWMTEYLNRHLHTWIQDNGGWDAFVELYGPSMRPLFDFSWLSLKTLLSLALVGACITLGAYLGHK
UniProt P19474: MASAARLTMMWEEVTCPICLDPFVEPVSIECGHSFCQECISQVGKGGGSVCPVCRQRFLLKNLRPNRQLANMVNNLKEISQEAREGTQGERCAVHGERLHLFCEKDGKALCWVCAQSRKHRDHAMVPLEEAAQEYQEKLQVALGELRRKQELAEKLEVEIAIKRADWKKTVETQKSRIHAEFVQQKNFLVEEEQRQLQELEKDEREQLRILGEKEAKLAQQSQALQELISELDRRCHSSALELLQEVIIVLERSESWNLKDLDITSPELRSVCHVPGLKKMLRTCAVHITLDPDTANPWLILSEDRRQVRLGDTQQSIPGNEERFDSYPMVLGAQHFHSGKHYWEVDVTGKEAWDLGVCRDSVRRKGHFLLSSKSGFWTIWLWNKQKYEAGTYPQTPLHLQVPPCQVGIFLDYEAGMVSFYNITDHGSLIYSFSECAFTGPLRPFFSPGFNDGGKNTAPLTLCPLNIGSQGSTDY

Substance	binding (BCL-XL)	binding (BCL2)	binding [1]
TRIM21 (from UniProt P19474 1-475)	binds	binds	
TRIM21-Flag (from UniProt P19474 1-475)			binds

— PMC12343803
